The source of these data is paper PMC9932167.

Sequences of proteins named here, by UniProt entry; tags and fusion partners are left off. A change or cut given only in a name is not applied to a line headed by its entry. A line that says so, or that is headed by a name, gives the form on record, which may keep a tag or linker.
UniProt Q1HFZ0: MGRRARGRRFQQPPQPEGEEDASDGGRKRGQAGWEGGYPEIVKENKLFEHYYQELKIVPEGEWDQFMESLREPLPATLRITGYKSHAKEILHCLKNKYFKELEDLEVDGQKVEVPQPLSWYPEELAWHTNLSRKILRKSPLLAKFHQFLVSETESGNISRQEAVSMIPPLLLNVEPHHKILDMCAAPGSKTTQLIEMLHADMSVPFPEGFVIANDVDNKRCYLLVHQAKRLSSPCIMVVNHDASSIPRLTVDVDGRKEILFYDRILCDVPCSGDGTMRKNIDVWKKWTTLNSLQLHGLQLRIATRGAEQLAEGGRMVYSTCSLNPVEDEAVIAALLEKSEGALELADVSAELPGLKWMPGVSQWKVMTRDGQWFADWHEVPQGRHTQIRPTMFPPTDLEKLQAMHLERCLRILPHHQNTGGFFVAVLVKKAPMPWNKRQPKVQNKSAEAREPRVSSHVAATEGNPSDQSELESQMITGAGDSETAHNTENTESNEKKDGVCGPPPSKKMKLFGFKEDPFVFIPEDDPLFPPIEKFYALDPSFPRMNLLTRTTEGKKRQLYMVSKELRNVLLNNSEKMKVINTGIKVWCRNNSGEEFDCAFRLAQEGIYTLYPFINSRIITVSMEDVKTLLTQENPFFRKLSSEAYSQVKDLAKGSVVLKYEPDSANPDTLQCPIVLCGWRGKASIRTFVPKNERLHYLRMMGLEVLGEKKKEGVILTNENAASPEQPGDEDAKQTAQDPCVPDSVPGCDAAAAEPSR
GST-RoRγt protein (P51450-2, form named): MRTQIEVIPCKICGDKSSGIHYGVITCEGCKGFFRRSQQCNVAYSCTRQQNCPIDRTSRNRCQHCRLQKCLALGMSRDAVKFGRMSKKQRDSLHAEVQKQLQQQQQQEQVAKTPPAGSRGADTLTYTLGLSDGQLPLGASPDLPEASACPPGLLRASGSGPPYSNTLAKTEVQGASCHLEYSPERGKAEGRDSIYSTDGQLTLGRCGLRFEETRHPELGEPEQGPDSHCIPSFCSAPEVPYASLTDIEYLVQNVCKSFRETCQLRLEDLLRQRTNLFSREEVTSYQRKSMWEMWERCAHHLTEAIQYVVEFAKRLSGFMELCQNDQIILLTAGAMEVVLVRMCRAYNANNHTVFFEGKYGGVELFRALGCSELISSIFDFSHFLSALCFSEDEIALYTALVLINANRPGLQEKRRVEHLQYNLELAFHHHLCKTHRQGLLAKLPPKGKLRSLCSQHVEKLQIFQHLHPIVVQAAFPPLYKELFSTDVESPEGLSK

Results are given in words; binding and its absence hold for the method and conditions named. For part of these data: Binding seen in cells or lysates may run through a third protein. Some results given as binding are weak or reduced against the parent protein; the word gives no strength.

Experiment [1] has as its target Flag-Nsun2 (pCDNA3.1-Flag-Nsun2, wild-type mouse Nsun2) (mouse) (UniProt Q1HFZ0). The experiment is described as follows: co-IP; HEK293T co-transfected with Myc-RoRγt and Flag-Nsun2 or Flag-EV for 2 days; RIPA lysates treated with DNase I and RNase A; anti-Flag beads or anti-Myc beads, 3 h; western blot. In general terms: A western blot detects proteins with antibodies after separation by electrophoresis.

Experiment [2] deals with Nsun2 (RNA 5-methylcytosine methyltransferase), endogenous in mouse Th17 cells (mouse (endogenous in Th17 cells)) (UniProt Q1HFZ0). Put plainly: proximity ligation; PLA for Nsun2 and RoRγt in induced Th17 cells; signal in the nucleus (DAPI).
Experiment [3] addresses GST-RoRγt protein (mouse) (UniProt P51450). Put plainly: pull-down; 5 μg purified Flag-Nsun2 mixed with GST or GST-RoRγt protein and glutathione Sepharose beads in NETN buffer (100 mM NaCl, 1 mM EDTA, 20 mM Tris-HCl pH 7.4, 0.5% NP-40), 4 °C, 4 h; western blot; both purified.

For “Myc-RoRγt (pCMV-Myc-RoRγt, wild-type mouse RoRγt) (from UniProt P51450-2 1-495)”, the binding result in experiment [1] is “binds”.

Regarding “Retinoic acid receptor-related orphan receptor gamma t (RoRγt), endogenous in mouse Th17 cells (from UniProt P51450-2 1-495)”, the binding entry in experiment [2] is reported as “binds”.

For the substance “purified Flag-Nsun2 (mouse) protein (from UniProt Q1HFZ0 1-757) (enzyme)”, in experiment [3], the binding entry is reported as “binds”.
